Laboratory results: PubChem BioAssay AID1487 (National Center for Advancing Translational Sciences (NCATS), 2009)
The other results are listed elsewhere or left out. Further columns of the screen follow, without active or inactive calls. Compounds called inactive in the main read-out are mostly missing here. Words in brackets tell the shape of the fitted curve; partial curves, single points and poor fits give uncertain potencies.

Experiment: qHTS Assay for Modulators of Lamin A Splicing
Settings: HeLa LMNA splicing GFP/RFP minigene ratio, 48 h
Procedure, shortened: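 S3 HeLa stable clones carrying a lamin A-EGFP splicing minigene plus DsRed2 were seeded at 600 cells/well in Opti-MEM with 2% FBS, pin-dosed and incubated 48 h at 37°C. Acumen cytometry (488 nm) gave the GFP/RFP total-intensity ratio.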

[1] = measured here: GFP splicing reporter channel
[2] = measured here: RFP viability control channel

Structure (SMILES) | AC50 [1] | AC50 [2]
O=C(C1CCC1)N(CCc1ccccc1)Cc1nc2ccccc2c(=O)[nH]1 | 0.0224 µM [rising, full curve, poor fit] | 22.4 µM [rising, partial curve, poor fit]
O=C(O)c1c(-c2ccccc2)c(-c2ccccc2)nc2ccccc12 | – | 0.0501 µM [rising, full curve]
S=C(NCCc1ccccc1)Nc1ccc(Cl)cc1Cl | – | 12.6 µM [rising, partial curve]
CCOc1ccc(N=c2scc(-c3ccccc3)n2CCO)cc1 | – | 22.4 µM [rising, single point]
O=C(Nc1nc(-c2ccc(S(=O)(=O)N3CCCC3)cc2)cs1)c1cccs1 | – | 2.24 µM [rising, full curve]
O=c1[nH]c2ccc(S(=O)(=O)N3CCC(Cc4ccccc4)CC3)cc2o1 | 11.2 µM [rising, partial curve, poor fit] | 14.1 µM [rising, partial curve]
CCC(=O)Nc1ccc(C(=O)N/N=C/c2c(C)[nH]c3ccccc23)cc1 | 31.6 µM [falling, single point] | –
CCOc1nc(C)ccc1-c1noc(-c2ccccn2)n1 | 14.1 µM [rising, single point] | –
COc1ccc(C(=O)NC(Cc2ccc(OC(=O)c3ccc(OC)cc3)cc2)C(=O)O)cc1 (centres undefined) | – | 0.0126 µM [falling, full curve, poor fit]
CCSc1ccc(C(=O)Nc2cccc(C)n2)cc1[N+](=O)[O-] | – | 0.0158 µM [falling, full curve, poor fit]
O=C(/C=C/c1cccc([N+](=O)[O-])c1)Nc1cccc(NC(=O)c2cccs2)c1 | – | 22.4 µM [rising, single point]
CCOC(=O)C(C(=O)OCC)C(Nc1cccc(Br)c1)c1ccccc1 (centres undefined) | 15.8 µM [falling, partial curve] | 20 µM [falling, partial curve]
CC1CCCCN1C(=O)CSc1nc(C2CC2)nc2c1cnn2-c1ccccc1 (centres undefined) | 3.98 µM [rising, single point] | –
O=C(NCCc1ccccn1)c1ccc(NS(=O)(=O)c2ccc(F)cc2)cc1 | 0.0794 µM [rising, full curve] | –
NC(=O)/C(=N\OC(=O)c1ccco1)c1nc(-c2ccc(Br)cc2)cs1 | 20 µM [falling, single point] | 22.4 µM [falling, single point]
COCn1c(-c2cccc(Br)c2)nc2ccccc21 | – | 15.8 µM [rising, single point]
CCn1cc(C(=O)NCC2CCCO2)c(=O)c2cc(S(=O)(=O)N3CCCCC3)ccc21 (centres undefined) | 11.2 µM [rising, single point] | 8.91 µM [rising, partial curve, poor fit]
Cc1ccc(SCc2ccc(C(=O)NCc3cccnc3)cc2)cc1 | – | 35.5 µM [rising, single point]
O=C(NCc1cccnc1)c1ccc(-c2ccc(Cl)cc2)o1 | – | 14.1 µM [falling, partial curve, poor fit]

Structure (SMILES) | AC50 [1] | AC50 [2]
Fc1ccc(N2CCN(c3ncnc4[nH]ncc34)CC2)cc1 | – | 0.178 µM [falling, full curve, poor fit]
Cc1ccc(N2C(=O)c3ccccc3C2C(=O)c2cc(C)ccc2O)cc1 (centres undefined) | 8.91 µM [rising, partial curve] | 11.2 µM [rising, partial curve]
Cc1occc1-c1nnc(SCC(=O)N2CCN(c3ccccc3F)CC2)n1C | 35.5 µM [rising, single point] | 31.6 µM [rising, single point]
CN(CC(=O)Nc1ccccc1Sc1ccccc1)C1CCCCC1 | 14.1 µM [rising, partial curve, poor fit] | 35.5 µM [rising, single point]
O=C(CCCOc1ccccc1)Nc1ccc(S(=O)(=O)Nc2ccccn2)cc1 | – | 0.0112 µM [falling, full curve, poor fit]
CCN1CCN(C(c2ccc(F)cc2)c2sc3nc(-c4ccco4)nn3c2O)CC1 (centres undefined) | 5.62 µM [rising, single point] | 3.55 µM [rising, single point]
COc1ccc(C(=O)C2CCCN(Cc3ccc4nonc4c3)C2)cc1F (centres undefined) | 12.6 µM [falling, single point] | 10 µM [falling, partial curve, poor fit]
CSc1ccc(/C=C/C(=O)c2ccc(NC(=O)Cc3ccccc3)cc2)cc1 | 15.8 µM [falling, single point] | 11.2 µM [falling, partial curve]
Nc1ncnc2c1ncn2[C@@H]1O[C@H](CO)C[C@@H]1O | 0.891 µM [falling, full curve, poor fit] | –
CN(C)S(=O)(=O)c1cccc(NC(=O)c2ccc(N3CCOCC3)c([N+](=O)[O-])c2)c1 | – | 35.5 µM [rising, single point]
COc1ccccc1NS(=O)(=O)c1ccc(NC(=O)Cc2cccs2)cc1 | – | 14.1 µM [rising, single point]
Cc1cccc(CCNC(=O)CCS(=O)(=O)c2cc3c(cc2C)NC(=O)CO3)c1 | – | 0.141 µM [falling, full curve, poor fit]
c1cncc(CN=C2Nc3ccccc3CS2)c1 | 0.562 µM [falling, full curve, poor fit] | –
COC(=O)c1cc(=O)n(CCc2ccccc2F)c(=Nc2ccc(F)c(Cl)c2)s1 | 15.8 µM [falling, single point] | 28.2 µM [falling, single point]
Clc1ccccc1CSC1=NCCN1 | 17.8 µM [falling, single point] | –
N=C(N)CCCOc1ccccc1-c1ccccc1 | – | 31.6 µM [rising, single point]
COc1ccc(CNC(=O)c2sc3nc4n(c(=O)c3c2C)CCC4)cc1 | – | 0.282 µM [falling, full curve, poor fit]
CCOC(=O)c1c(NC(=O)CN2C(=O)NC3(CCCCCC3)C2=O)sc(C)c1-c1ccc(C)cc1 | 0.224 µM [rising, full curve, poor fit] | –
OCCCNc1ncnc2sc(-c3ccccc3)cc12 | – | 6.31 µM [rising, partial curve]

Structure (SMILES) | AC50 [1] | AC50 [2]
Cc1ccc(Nc2nc(Nc3ccc(C)cc3)nc(SC3=NCCS3)n2)cc1 | 12.6 µM [falling, single point] | –
CC(C)(C)c1ccc(C(=O)NC(Cc2c[nH]c3ccccc23)C(=O)OCC(=O)c2ccc(Br)cc2)cc1 (centres undefined) | – | 0.501 µM [falling, full curve, poor fit]
COc1cc2nc(CSc3nc(-c4ccc(F)cc4)cs3)[nH]c(=O)c2cc1OC | – | 7.08 µM [rising, partial curve]
COc1cc(C(=O)NCc2ccccc2)cc(Br)c1OC | 5.62 µM [falling, full curve, poor fit] | 6.31 µM [falling, full curve, poor fit]
CCCCOc1cccc(C(=O)NNC(=S)NC2CCCCC2)c1 | 15.8 µM [rising, single point] | 22.4 µM [rising, single point]
COc1ccccc1-c1noc(CSc2nc(C)cc(=O)[nH]2)n1 | 39.8 µM [falling, partial curve, poor fit] | –
CCOc1cc(C2NC(=O)NC(O)(C(F)(F)F)C2C(=O)c2ccc(Cl)cc2)ccc1O (centres undefined) | – | 35.5 µM [rising, single point]
Cc1cc(F)ccc1NC(=O)CS(=O)(=O)c1cccc2nsnc12 | 3.16 µM [falling, partial curve, poor fit] | –
Fc1ccc2nc(Nc3nc4cc5c(cc4s3)OCCO5)sc2c1 | 3.98 µM [rising, full curve, poor fit] | 25.1 µM [rising, partial curve]
CC(=O)Nc1ccccc1C(=O)C(=O)Nc1ccc(C(=O)NCC2CCCO2)cc1 (centres undefined) | – | 7.08 µM [rising, single point]
O=C(COc1ccc2ccccc2c1)NCCn1ccc2ccccc21 | – | 22.4 µM [rising, single point]
O=C(c1ccccc1Cl)N(C(=O)c1ccccc1Cl)c1nccc(-c2cccs2)n1 | 11.2 µM [rising, partial curve, poor fit] | 1.78 µM [rising, partial curve, poor fit]
CCN(CC)S(=O)(=O)c1cc(NC(=O)c2cc(-c3ccccn3)nc3ccccc23)ccc1C | – | 35.5 µM [rising, partial curve, poor fit]
CC(C)c1ccc(NC(=O)N2CCC(c3nc4ccccc4o3)CC2)cc1 | 10 µM [rising, partial curve] | 12.6 µM [rising, partial curve]
CSc1ccc(CCNC(=O)c2cc3cc(S(=O)(=O)N4CCCCC4)ccc3n2C)cc1 | 0.447 µM [rising, single point] | –
COc1ccc(CNc2nc(SCc3ccccc3Cl)nc3ccccc23)cc1 | 17.8 µM [falling, partial curve, poor fit] | 35.5 µM [falling, single point]
C/C(=N\NC(=O)c1ccc(C)cc1)C1C(=O)c2ccccc2C1=O | – | 35.5 µM [rising, single point]
COc1ccc(S(=O)(=O)N(C(C)=O)c2ccc3oc(=O)sc3c2)cc1 | – | 10 µM [rising, partial curve]

Reprinted at random: 2 entries already listed.
Structure (SMILES) | AC50 [1] | AC50 [2]
S=C(NCCc1ccccc1)Nc1ccc(Cl)cc1Cl | – | 12.6 µM [rising, partial curve]
COc1ccccc1-c1noc(CSc2nc(C)cc(=O)[nH]2)n1 | 39.8 µM [falling, partial curve, poor fit] | –
